Laboratory results taken from paper doi:10.1101/2020.07.07.180133.
These are yes or no findings as the source states them, for the method shown. Binding seen in cells or lysates may run through a third protein. Some results given as binding are weak or reduced against the parent protein; the word gives no strength. Each block holds one molecule with its values, some of them ahead of it.

Amino acid sequences for entries named in this document (tags omitted).
UniProt Q9EPU0: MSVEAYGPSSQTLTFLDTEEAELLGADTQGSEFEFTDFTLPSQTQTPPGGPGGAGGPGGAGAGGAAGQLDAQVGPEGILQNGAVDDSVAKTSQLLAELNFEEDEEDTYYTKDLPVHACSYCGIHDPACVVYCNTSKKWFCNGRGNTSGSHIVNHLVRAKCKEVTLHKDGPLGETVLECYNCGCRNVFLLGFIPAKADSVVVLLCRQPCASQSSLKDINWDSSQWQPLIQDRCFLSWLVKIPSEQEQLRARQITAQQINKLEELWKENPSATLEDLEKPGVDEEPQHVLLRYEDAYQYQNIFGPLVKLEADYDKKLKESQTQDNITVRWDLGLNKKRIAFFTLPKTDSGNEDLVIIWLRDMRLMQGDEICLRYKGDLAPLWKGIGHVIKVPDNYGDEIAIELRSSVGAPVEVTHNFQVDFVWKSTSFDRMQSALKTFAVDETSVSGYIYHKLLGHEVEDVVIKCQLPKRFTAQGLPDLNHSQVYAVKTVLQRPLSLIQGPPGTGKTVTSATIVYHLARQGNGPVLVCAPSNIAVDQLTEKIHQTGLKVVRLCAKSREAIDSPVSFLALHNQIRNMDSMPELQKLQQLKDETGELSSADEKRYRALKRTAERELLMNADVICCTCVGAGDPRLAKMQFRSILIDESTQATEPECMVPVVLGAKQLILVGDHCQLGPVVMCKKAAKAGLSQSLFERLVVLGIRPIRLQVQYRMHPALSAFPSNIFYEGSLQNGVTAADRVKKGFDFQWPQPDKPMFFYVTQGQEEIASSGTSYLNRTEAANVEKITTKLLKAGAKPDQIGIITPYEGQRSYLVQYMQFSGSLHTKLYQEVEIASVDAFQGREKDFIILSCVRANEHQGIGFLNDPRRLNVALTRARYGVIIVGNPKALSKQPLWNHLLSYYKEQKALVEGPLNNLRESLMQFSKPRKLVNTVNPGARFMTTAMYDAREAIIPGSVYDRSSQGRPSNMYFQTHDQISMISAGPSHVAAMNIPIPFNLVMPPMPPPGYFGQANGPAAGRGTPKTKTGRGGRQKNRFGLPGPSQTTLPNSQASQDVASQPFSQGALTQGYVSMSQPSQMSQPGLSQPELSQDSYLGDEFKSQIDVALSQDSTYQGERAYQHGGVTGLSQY

Molecular target: T1, Smg7 (mouse (endogenous in mouse ESCs)) (UniProt Q5RJH6)
T1 sequence: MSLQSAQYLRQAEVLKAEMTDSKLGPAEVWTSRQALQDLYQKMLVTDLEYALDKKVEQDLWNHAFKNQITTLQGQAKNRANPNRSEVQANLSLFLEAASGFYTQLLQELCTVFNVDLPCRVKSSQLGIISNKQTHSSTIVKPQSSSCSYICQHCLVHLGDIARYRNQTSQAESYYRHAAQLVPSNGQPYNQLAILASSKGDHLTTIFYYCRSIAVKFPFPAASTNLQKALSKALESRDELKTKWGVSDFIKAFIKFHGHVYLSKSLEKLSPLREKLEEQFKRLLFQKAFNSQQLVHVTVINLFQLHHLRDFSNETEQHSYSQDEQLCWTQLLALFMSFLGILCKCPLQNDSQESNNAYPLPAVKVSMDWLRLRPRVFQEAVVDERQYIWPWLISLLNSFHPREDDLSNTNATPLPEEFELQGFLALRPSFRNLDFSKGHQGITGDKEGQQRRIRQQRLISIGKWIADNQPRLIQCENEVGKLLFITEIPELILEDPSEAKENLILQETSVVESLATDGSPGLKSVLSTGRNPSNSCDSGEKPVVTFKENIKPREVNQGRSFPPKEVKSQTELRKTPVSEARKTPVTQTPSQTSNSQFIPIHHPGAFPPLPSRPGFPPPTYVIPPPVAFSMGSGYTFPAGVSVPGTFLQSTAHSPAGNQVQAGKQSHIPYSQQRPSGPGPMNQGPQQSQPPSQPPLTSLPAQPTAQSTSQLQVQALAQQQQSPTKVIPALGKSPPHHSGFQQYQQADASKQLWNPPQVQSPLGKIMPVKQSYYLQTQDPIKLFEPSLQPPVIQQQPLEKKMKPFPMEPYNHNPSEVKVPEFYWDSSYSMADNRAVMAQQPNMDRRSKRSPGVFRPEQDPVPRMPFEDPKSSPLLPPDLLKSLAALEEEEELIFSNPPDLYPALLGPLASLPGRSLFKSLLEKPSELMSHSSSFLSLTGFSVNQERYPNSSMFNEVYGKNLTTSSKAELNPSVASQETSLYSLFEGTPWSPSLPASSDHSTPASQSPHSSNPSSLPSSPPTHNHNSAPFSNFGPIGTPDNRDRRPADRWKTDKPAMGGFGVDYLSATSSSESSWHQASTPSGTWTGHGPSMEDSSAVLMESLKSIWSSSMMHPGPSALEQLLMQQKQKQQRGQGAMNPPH
Assay: co-IP

binding: binds
Molecule: phosphorylated Upf1 (from UniProt Q9EPU0 1-1124)

binding: binds
B1: Smg5 (protein, UniProt Q6ZPY2 1-1017)
chain: MSQGPPPGESSEPEAKVLHTKRLYRAVVEAVHRLDLILCNKAAYQEVFKPENVSLRNKLRELCVKLMFLHPVDYGRKAEELLWRKVYYEVIQLIKTNKKHIHSRSTLECAYRTHLVAGIGFYQHLLLYIQSHYQLELQCCIDWTHVTDPLMGFKKPVSASGKEMDWAQMACHRCLVYLGDLSRYQNELAGVDTELLAERFYYQALSVAPQIGMPFNQLGTLAGSKYYNVEAMYCYLRCIQSEVSFEGAYGNLKRLYDKAAKMYHQLKKSETRKLSPSKKRCKDIKRLLVNFMYLQSLLQPKSSSVDSELTSLCQSVLEDFNLCLFYLPSSPNLGLTNEDEEECESGYAFLPDLLIFQMAIICLMGVHSLKRAGSKHYSAAIAFTLALFSHLINHVNIRLQAELEEGENPVSAFQSDGTDEPESKEALEKEEPEPEPPTVVPQADEGRKSRKHSRLSCLRRRRRHHPPKAGDDSDLSEGFESDSSHDSAQASDGSDSGSDKSLEGRGTAFDAETDSEMNSQESRSDLEDMEDEEGTRSPAQEPPQARSEVPDSLNGPLGPSEASIASNLQAMSTQMFQTKRCFRLAPTFSNLLLQPTTEPNSVASHRPCVNGDMDKPLEPASEDGSESEGSESSNRSCRNERSLQEKLQALMAEGLLPAVKVFLDWLRTNPDLIIVCAQSSQSLWNRLSVLLNLLPASAELQDSGLALCSEVQGLLEGCELPDLPASLLLPEDMALRNLPPLRAAHRRFNFDADRPLLSALEESVVRICCIRSFGHFVARLQGSILQFNPEVGIFVSIAQSEQESLLQQAQAQFRMAEEEARRNRLMRDMAQLRLQLEVSQLEGSLQQPKAQSAMSPYLIPDTQALCYHLPLIRQLATSGRFIIIIPRTVIDGLDLLKKEQPGARDGIRYLEAEFKKGNRYIRCQKEVGKSFERHKLKRQDADAWTLYKILDSCRQLTLAQGAGEEDPSGMVTIITGLHLDSPSALSGPMQAALQAAAHASVDVKNVLDFYRQWKEIG
